No constants are given. Whether binding was seen depends on the method and setting.
Biological target: Plasmodium falciparum profilin, wild type (Plasmodium falciparum) (UniProt Q8I2J4)
Assay: SEC; size-exclusion chromatogram of the purified wild-type and mutant profilins (S7A Fig); both purified

B1: Plasmodium falciparum profilin, wild type (protein, UniProt Q8I2J4 1-171)
chain: MAEEYSWDSYLNDRLLATNQVSGAGLASEEDGVVYACVAQGEESDPNFDKWSLFYKEDYDIEVEDENGTKTTKTINEGQTILVVFNEGYAPDGVWLGGTKYQFINIERDLEFEGYNFDVATCAKLKGGLHLVKVPGGNILVVLYDEEKEQDRGNSKIAALTFAKELAESSQ
binding: no binding
